PMC7327492
No constants are given. Whether binding was seen depends on the method and setting. A result given as binding can be weak or reduced; the word gives no strength. Tags and fused reporters may be left off the sequences shown. For part of these data: In cells and extracts the contact can be indirect.

Columns and labels:
YFP-B56α = assay: co-IP; YFP-B56α transfected into HeLa-FRT cells stably expressing mCherry B56 inhibitor or control inhibitor, mitotic cells, low salt lysis buffer, GFP-trap beads, Western blotting (and label-free MS)
Recombinant B56α = assay: ITC; Auto-iTC200, 25°C, 50 mM sodium phosphate pH 7.5, 200 mM NaCl, 0.5 mM TCEP; inhibitors in the syringe and B56α in the cell (direct) or vice versa (reverse), both globally fitted to a 1:1 model; both purified

B1: Kif4A (protein, UniProt O95239 1-1232)
chain: MKEEVKGIPVRVALRCRPLVPKEISEGCQMCLSFVPGEPQVVVGTDKSFTYDFVFDPSTEQEEVFNTAVAPLIKGVFKGYNATVLAYGQTGSGKTYSMGGAYTAEQENEPTVGVIPRVIQLLFKEIDKKSDFEFTLKVSYLEIYNEEILDLLCPSREKAQINIREDPKEGIKIVGLTEKTVLVALDTVSCLEQGNNSRTVASTAMNSQSSRSHAIFTISLEQRKKSDKNSSFRSKLHLVDLAGSERQKKTKAEGDRLKEGININRGLLCLGNVISALGDDKKGGFVPYRDSKLTRLLQDSLGGNSHTLMIACVSPADSNLEETLNTLRYADRARKIKNKPIVNIDPQTAELNHLKQQVQQLQVLLLQAHGGTLPGSITVEPSENLQSLMEKNQSLVEENEKLSRGLSEAAGQTAQMLERIILTEQANEKMNAKLEELRQHAACKLDLQKLVETLEDQELKENVEIICNLQQLITQLSDETVACMAAAIDTAVEQEAQVETSPETSRSSDAFTTQHALRQAQMSKELVELNKALALKEALARKMTQNDSQLQPIQYQYQDNIKELELEVINLQKEKEELVLELQTAKKDANQAKLSERRRKRLQELEGQIADLKKKLNEQSKLLKLKESTERTVSKLNQEIRMMKNQRVQLMRQMKEDAEKFRQWKQKKDKEVIQLKERDRKRQYELLKLERNFQKQSNVLRRKTEEAAAANKRLKDALQKQREVADKRKETQSRGMEGTAARVKNWLGNEIEVMVSTEEAKRHLNDLLEDRKILAQDVAQLKEKKESGENPPPKLRRRTFSLTEVRGQVSESEDSITKQIESLETEMEFRSAQIADLQQKLLDAESEDRPKQRWENIATILEAKCALKYLIGELVSSKIQVSKLESSLKQSKTSCADMQKMLFEERNHFAEIETELQAELVRMEQQHQEKVLYLLSQLQQSQMAEKQLEESVSEKEQQLLSTLKCQDEELEKMREVCEQNQQLLRENEIIKQKLTLLQVASRQKHLPKDTLLSPDSSFEYVPPKPKPSRVKEKFLEQSMDIEDLKYCSEHSVNEHEDGDGDDDEGDDEEWKPTKLVKVSRKNIQGCSCKGWCGNKQCGCRKQKSDCGVDCCCDPTKCRNRQQGKDSLGTVERTQDSEGSFKLEDPTEVTPGLSFFNPVCATPNSKILKEMCDVEQVLSKKTPPAPSPFDLPELKHVATEYQENKAPGKKKKRALASNTSFFSGCSPIEEEAH
In the case of B1, the binding (YFP-B56α) is reported as “binds”.

B2: His-tagged 4x(LxxIxE) B56 inhibitor (designed binder)
chain: TGSTGSTGSTGSTGSLPRSSTLPTIHEEEELSLCTGSTGSTGSTGSTGSLPRSSTLPTIHEEEELSLCTGSTGSTGSTGSTGSLPRSSTLPTIHEEEELSLCTGSTGSTGSTGSTGSLPRSSTLPTIHEEEELSLC
With B2 the binding (Recombinant B56α) was “binds”.

B3: mCherry-tagged 4x(LxxIxE) B56 inhibitor (designed binder)
chain: B2 chain
For B3, the binding (YFP-B56α) was “binds”.
